Data as given in PubChem BioAssay AID652259 (Drosophila RNAi Screening Center, 2013)
The deposit covers about 22,000 reagents; this is an unselected part of those that have a named target and a result. Of all reagents, 233 (1.1%) were called active. 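Light values are raw, unnormalised plate reads; the ratio scores behind the reporter calls were not deposited.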 Entries without a mark were called inactive. Reagents against one gene are numbered here. A plus sign joins genes that one reagent is predicted to hit. Not stated in the record: the amount of reagent, the time to read-out, the dose of the treatment.

- Aim: 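Identify new Wingless signalling regulators in fly cells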 (primary screen)
- Cell system: Drosophila clone 8 imaginal disc epithelial cells
- Knock-down reagent: long dsRNA against Drosophila genes
- Treatment: pathway stimulated by co-transfected Wingless expression plasmid
- Measurement: 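Dual luciferase reads per well after Wingless plasmid stimulation: reporter firefly light and Renilla control light; activity is firefly divided by Renilla, a ratio not deposited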
- Direction: firefly reporter light: higher = more Wg reporter light, before normalisation; Renilla control light: higher = more transfected or surviving cells
- Call rule: 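Strong candidates differ from their plate mean by at least two out of four per-plate statistical tests; weak candidates meet just one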
- Calls: active = candidate regulator (raises or lowers reporter); inactive = not a candidate

Target gene	reagent no.	firefly reporter light, replicate 1	firefly reporter light, replicate 2	Renilla control light, replicate 1	Renilla control light, replicate 2
Sbat (GeneID 319043)	1	16515		7274	
Mink (GeneID 42982)	1	1668	5757	874	1063
CG7910 (GeneID 40956)	1	23606		5266	
CG32055 (GeneID 39188)	1	5773		2021	
Alp11 (GeneID 32496)	1	14138		6896	
CG5966 (GeneID 31532)	1	2696	7883	826	2268
Myo28B1 (GeneID 53515)	1	2640	11536	263	4454
CG13197 (GeneID 36253)	1	12310		3733	
CG17475 (GeneID 42069)	1	11810		2611	
CG11608 (GeneID 41556)	1	13536		4627	
Sting (GeneID 36016)	1	3531	11576	946	4741
mtd (GeneID 45467)	1	9808		3640	
mtd (GeneID 45467)	2	8560		3153	
mtd (GeneID 45467)	3	16771		5696	
CG7069 (GeneID 42621)	1	1671	6699	946	1961
CG15308 (GeneID 50415)	1	16250		8116	
Dtwd2 + Obp84a	1	13865		4288	
lncRNA:CR30009 (GeneID 3771726)	1	5.67e5	6.01e5	2.28e5	1.87e5
tkv (GeneID 33753)	1	28947		11232	
tkv (GeneID 33753)	2	5335		2720	
tkv (GeneID 33753)	3	5.45e5	5.44e5	1.92e5	19942
maca (GeneID 41892)	1	9749		3014	
CG32106 (GeneID 317855)	1	2727		1178	
CG43117 (GeneID 12798272)	1	3024		1019	
Prx6a (GeneID 33493)	1	15584		5640	
PGRP-SC1a (GeneID 35859)	1	2522	6757	912	2794
ERp44 (GeneID 32588)	1	1513	5153	679	1869
CG5973 (GeneID 34023)	1	13559		6006	
dpr1 (GeneID 2768858)	1	20121		8948	
dpr1 (GeneID 2768858)	2	6615		2444	
CG7168 (GeneID 42184)	1	2522	6837	1504	1888
CG3032 (GeneID 31648)	1	21719		9456	
ND6 (retired record) (GeneID 192479)	1	22403	7.22e5	14896	3.21e5
CG14406 (GeneID 32421)	1	26194		8605	
Teh1 (GeneID 41215)	1	20156		5264	
Pgam5-2 (GeneID 37899)	1	1798	6022	599	2312
Hml (GeneID 39529)	1	5216		2528	
slim (GeneID 37121)	1	17181		3962	
CG31743 + CG34313	1	14917		4938	
CG31743 + CG34313	2	1675	5120	1104	3344
c(2)M (GeneID 34964)	1	12029		4205	
gry (GeneID 38391)	1	4424		1989	
gry (GeneID 38391)	2	6311		3016	
CG17239 (GeneID 59224)	1	2576	7216	875	2149
tapas (GeneID 37304)	1	9409		2251	
Atg17 (GeneID 40700)	1	21233		4646	
Atg16 (GeneID 326115)	1	3222	8202	1299	1933
Atg16 (GeneID 326115)	2	6041		1962	
Atg16 (GeneID 326115)	3	5691		1986	
ZnT35C (GeneID 34890)	1	1824	4076	755	2000
polybromo (GeneID 42954)	1	1730	3552	1050	1250
CG15820 (GeneID 38277)	1	14250		3568	
Ir76a (GeneID 40157)	1	4299		1962	
corolla (GeneID 32739)	1	2281	6880	779	2509
CG7140 (GeneID 40445)	1	15757		4216	
Nrk (GeneID 36445)	1	4658		2229	
grsm (GeneID 41587)	1	13878		3450	
grsm (GeneID 41587)	2	16096		2898	
CG9672 (GeneID 32651)	1	2178	5910	912	1361
Zir (GeneID 33165)	1	10427		2305	
Ets98B (GeneID 43334)	1	11644	7.59e5	4957	3.23e5
CG8243 (GeneID 35890)	1	3648	14075	1731	5880
CG8243 (GeneID 35890)	2	4.31e5	4.47e5	1.69e5	1.64e5
CG1172 + Or83a	1	15352		4602	
Dcps (GeneID 40711)	1	6898		2033	
Vajk4 (GeneID 36950)	1	12696		2025	
Vajk4 (GeneID 36950)	2	8460		3768	
CG33463 (GeneID 2768844)	1	3.65e5	3.86e5	1.54e5	1.22e5
Cyp4e3 (GeneID 34291)	1	1812	3413	791	2240
CG2247 (GeneID 32111)	1	2104	9173	867	3140
CG9503 (GeneID 32424)	1	29776		14945	
CG9503 (GeneID 32424)	2	3.96e5	4.23e5	1.61e5	1.72e5
CG18542 + CG32939	1	6064		2217	

An excerpt of the results above, for reference:
Target gene	reagent no.	firefly reporter light, replicate 1	firefly reporter light, replicate 2	Renilla control light, replicate 1	Renilla control light, replicate 2
Atg16 (GeneID 326115)	2	6041		1962	
Atg16 (GeneID 326115)	3	5691		1986	
ZnT35C (GeneID 34890)	1	1824	4076	755	2000
polybromo (GeneID 42954)	1	1730	3552	1050	1250
CG15820 (GeneID 38277)	1	14250		3568	
Ir76a (GeneID 40157)	1	4299		1962	
corolla (GeneID 32739)	1	2281	6880	779	2509
CG7140 (GeneID 40445)	1	15757		4216	
Nrk (GeneID 36445)	1	4658		2229	
